Binding data for 1 substance are collected here from publication PMC10449923.

Amino acid sequences for entries named in this document (tags omitted). A change or cut given only in a name is not applied to a line headed by its entry.
UniProt P35222: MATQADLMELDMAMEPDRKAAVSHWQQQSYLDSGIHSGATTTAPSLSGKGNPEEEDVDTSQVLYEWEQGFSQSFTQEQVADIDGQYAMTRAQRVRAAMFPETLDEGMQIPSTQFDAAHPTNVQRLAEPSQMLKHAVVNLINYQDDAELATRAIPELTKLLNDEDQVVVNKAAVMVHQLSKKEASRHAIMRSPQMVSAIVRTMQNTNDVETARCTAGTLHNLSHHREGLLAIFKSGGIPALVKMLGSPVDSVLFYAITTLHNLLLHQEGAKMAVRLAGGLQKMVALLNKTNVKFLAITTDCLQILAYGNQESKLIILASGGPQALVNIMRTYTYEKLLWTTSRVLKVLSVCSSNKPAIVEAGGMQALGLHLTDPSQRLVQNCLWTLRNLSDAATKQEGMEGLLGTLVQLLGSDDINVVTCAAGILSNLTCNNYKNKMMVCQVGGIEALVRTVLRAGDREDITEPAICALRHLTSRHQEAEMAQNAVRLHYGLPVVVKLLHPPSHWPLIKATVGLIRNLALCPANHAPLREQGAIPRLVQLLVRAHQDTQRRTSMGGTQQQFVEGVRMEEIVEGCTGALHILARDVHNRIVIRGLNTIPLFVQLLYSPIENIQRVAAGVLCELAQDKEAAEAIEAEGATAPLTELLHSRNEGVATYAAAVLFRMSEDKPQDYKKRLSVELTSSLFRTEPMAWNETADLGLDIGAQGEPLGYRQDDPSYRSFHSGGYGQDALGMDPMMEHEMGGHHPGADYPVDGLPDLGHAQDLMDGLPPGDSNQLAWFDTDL

The assay addresses catalytic domain of TET2 (Tet2CD) (UniProt Q6N021). The assay is described as follows: co-IP; about 1 mg of cell lysate (SW480 and SW620 cells overexpressing Tet2CD or Tet2CD-mt), antibody (normally anti-Flag) overnight at 4 °C, Protein A/G magnetic beads, immunoblotting; lysis buffer 50 mM Tris pH 8.0, 150 mM NaCl, 10% glycerol, 0.5% NP40. On the technique in general: A western blot detects proteins with antibodies after separation by electrophoresis.

Results are given in words; binding and its absence hold for the method and conditions named. In cells and extracts the contact can be indirect. Binding calls can cover weak binding; strength is not graded here.

Take “β-catenin (encoded by the CTNNB1 gene) (from UniProt P35222 1-781)”: the binding entry is given as “binds”.
